Laboratory results reported in PubChem BioAssay AID651640 (Broad Institute, 2012).
In all, about 350,000 compounds went through this assay and about 6,000 (1.7%) were called active. This list was built around the results that the source calls inconclusive (neither active nor inactive); the mix of calls is not that of the screen. Cut-off read from the data, not from the text of the source: active = CPE inhibition above about 20% (passing the limit was not always enough); inconclusive = no clear call, values can overlap the other calls; tested in BHK-21 cells. Some compounds were tested as several samples or in several runs, with calls that do not always agree.

experiment: protection of cells from dengue 2 killing – plate reader, single concentration, primary screen (AID 651640); conditions: DENV2-infected cells, cytopathic effect rescue, at 9.99 µM, stronger effect = higher value;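 note: 0% = median of neutral control wells and 100% = median of positive control wells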

| Compound | CPE inhibition |
| --- | --- |
| C[C@@H]1CN([C@@H](C)CO)C(=O)c2c(c3ccccc3n2C)-c2ccccc2CO[C@@H]1CN(C)C(=O)[C@@H]1CCCN1C | inactive: -1.99% |
| COc1ccc(NC(=O)N(C)C[C@H]2OCc3cnnn3CCCC(=O)N([C@@H](C)CO)C[C@H]2C)c(OC)c1 | active: 25.9% |
| CC1CCc2cc(F)cc3c(O)c(C(=O)NCCN(C)C)c(=O)n1c23 (centres undefined) | inconclusive: 28.8% |
| CCOc1ccc(-c2nnc3ccc(SCC(=O)N4CCN(c5ccccc5)CC4)nn23)cc1 | inconclusive: 25.2% |
| COC(=O)C1=C(C)N(Cc2ccc(Br)cc2)C(=S)NC1c1ccccc1 (centres undefined) | inconclusive: 69.3% |
| Cc1cc(C)n(-c2cccc(C(=O)O)c2)n1 | inactive: -5.99% |
| Cc1noc(C)c1NC(=O)Nc1ccc2c(c1)C(=O)N([C@H](C)CO)C[C@H](C)[C@@H](CN(C)Cc1ccccc1)O2 | active: 22.8% |
| Cc1ccc(C(=O)c2c3ccccc3[n+]([O-])n2CCC(=O)O)cc1 | inconclusive: 29.8% |
| O=c1[nH]c(SCc2ccccc2)nc2c1cnn2-c1ccc(F)cc1 | inconclusive: 57.7% |
| CO[C@@H]1CN(C)C(=O)c2ccc(NC(=O)C3CC3)cc2OC[C@@H](C)N(CCc2ccccc2)C[C@H]1C | inactive: 2.6% |
| O=C(CN1CCN(S(=O)(=O)c2ccc(Cl)s2)CC1)N1CCOCC1 | inconclusive: 32.5% |
| CCCCc1nc2cc(C(=O)NCc3nccn3CC)ccc2o1 | inconclusive: 46.3% |
| CC(C)=CCC[C@](C)(OC1OC(COC2OCC(O)C(O)C2O)C(O)C(O)C1O)C1CC[C@]2(C)C1C(O)CC1[C@@]3(C)CCC(O[C@@H]4O[C@H](CO)C(O)C(O)C4O[C@@H]4OC(CO)C(O)C(O)C4O)C(C)(C)C3CC[C@]12C (some centres undefined) | inconclusive: 56.9% |
| CC(=O)Nc1ccc(NC(=O)C2Cc3c(-c4ccco4)ccnc3O2)cc1 (centres undefined) | inconclusive: 40.2% |
| CC(C)NC(=O)Nc1ccc2c(c1)CC(=O)N([C@@H](C)CO)C[C@@H](C)[C@H](CN(C)C(=O)NC1CCCCC1)O2 | inconclusive: 20.1% |
| Cc1ccc2oc(-c3cccc(NC(=S)NC(=O)c4cccs4)c3)nc2c1 | inconclusive: 48.5% |
| CCCNC(=O)C[C@@H]1CC[C@@H]2[C@@H](COc3ccc(NC(=O)c4cccs4)cc3C(=O)N2C)O1 | inconclusive: 75.6% |
| C[C@@H]1CCCCO[C@@H](CN(C)Cc2ccc3c(c2)OCO3)[C@H](C)CN([C@H](C)CO)C(=O)c2cc(NC(=O)NC3CCCCC3)ccc2O1 | inconclusive: 55.1% |
| Cc1cc(Cl)ccc1C(O)c1ncc(-c2ccc3ccccc3c2)[nH]1 (centres undefined) | inconclusive: 53.7% |
| C[C@H](CO)N1C[C@H](C)[C@@H](CN(C)C(=O)Nc2ccc(F)cc2)Oc2ccc(NC(=O)CCC(F)(F)F)cc2C1=O | inconclusive: 27.9% |
| O=C(CSc1nc2ccccc2c(=O)n1-c1ccc(F)cc1)NC1CC1 | inactive: -10.2% |
| CCCC#Cc1ccc([C@@H]2[C@@H](CO)N3CCCCN(CC4CCOCC4)C[C@@H]23)cc1 | inconclusive: 23.3% |

| Compound | CPE inhibition |
| --- | --- |
| O=C(NC1Cc2ccccc2C1)[C@H]1N[C@H]2c3cccc(=O)n3C[C@H]2[C@@H]1CO | inconclusive: 38.5% |
| C[C@@H]1CN([C@H](C)CO)C(=O)c2cccc(NC(=O)c3ccncc3)c2O[C@H]1CN(C)C(=O)Nc1cccc2ccccc12 | inconclusive: 30.5% |
| CCOC(=O)c1sc(NC(=O)c2cccs2)nc1C | inconclusive: 42% |
| COc1ccc(S(=O)(=O)N(C)C[C@@H]2Oc3c(NC(=O)Nc4ccc(F)cc4)cccc3C(=O)N([C@@H](C)CO)C[C@@H]2C)cc1 | inactive: -1.4% |
| C[C@@H]1CCCCO[C@@H](CN(C)Cc2ccccc2)[C@H](C)CN([C@H](C)CO)C(=O)c2cc(NC(=O)CCC(F)(F)F)ccc2O1 | inconclusive: 69.6% |
| COc1ccc(CCC(C)NCc2ccc(Cl)c(Cl)c2)cc1 (centres undefined) | inconclusive: 24.3% |
| NS(=O)(=O)c1ccc(CCNC(=O)c2ccc(Cl)c(S(=O)(=O)N3CCCCCC3)c2)cc1 | inconclusive: 40.3% |
| COCCNc1ncnc2c1ncn2[C@H]1CN(Cc2ccc(OC)cc2)C[C@@H](CO)O1 | inconclusive: 28.7% |
| COc1cccc(C(=O)OCC(=O)N2CCc3ccccc32)c1OC | inactive: 7.71% |
| Cc1sc(NC(=O)CS(=O)(=O)c2ccccc2)c(C(N)=O)c1C | inactive: -2.5% |
| COc1ccc(NC(=O)Nc2cccc3c2O[C@H](CN(C)S(=O)(=O)c2cn(C)cn2)[C@@H](C)CN([C@H](C)CO)C3=O)cc1 | inconclusive: 31.9% |
| C[C@@H]1CN([C@@H](C)CO)C(=O)c2cccc(NS(=O)(=O)c3cccs3)c2O[C@@H]1CN(C)C(=O)Nc1cccc2ccccc12 | active: 43% |
| C[C@@H]1CCCCO[C@@H](CN(C)C(=O)C2CCCCC2)[C@H](C)CN([C@H](C)CO)C(=O)c2cc(NC(=O)Nc3cccc4ccccc34)ccc2O1 | active: 23.3% |
| FC(F)(F)c1ccc(/C=N/NC(=S)NC2CCCCC2)cc1 | inconclusive: 29.7% |
| O=C(C[C@@H]1C=C[C@@H](NC(=O)C2CCC2)[C@@H](CO)O1)NC1CCC1 | inactive: 8.16% |
| Cc1cc(-c2ccccc2)nc(N/N=C/c2ccc(O)cc2)n1 | inactive: -1.39% |
| COc1ccc(NC(=O)N(C)C[C@H]2OCCCC[C@H](C)Oc3ccc(NC(=O)c4ccncc4)cc3C(=O)N([C@H](C)CO)C[C@@H]2C)cc1 | active: 21.4% |
| CCN(CC)CCn1c(=S)[nH]c2cc(C(=O)NCCc3ccc(OC)c(OC)c3)ccc2c1=O | inconclusive: 65.2% |
| Cc1ccc(NC(=O)COC(=O)CN2C(=O)c3ccccc3C2=O)cc1 | inconclusive: 20% |
| CCCOC(=O)c1ccc(-c2ccc(C=O)o2)cc1 | inconclusive: 24% |
| C[C@H]1CN([C@@H](C)CO)C(=O)c2ccccc2-c2ccccc2CO[C@H]1CN(C)C(=O)Cc1ccccc1 | inactive: -4.09% |
| COc1ccc(C(=O)Nc2cc(=O)[nH]c3ncnn23)cc1 | inconclusive: 20.2% |

No new results follow: entries from further up.

| Compound | CPE inhibition |
| --- | --- |
| FC(F)(F)c1ccc(/C=N/NC(=S)NC2CCCCC2)cc1 | inconclusive: 29.7% |
| O=C(C[C@@H]1C=C[C@@H](NC(=O)C2CCC2)[C@@H](CO)O1)NC1CCC1 | inactive: 8.16% |
| Cc1cc(-c2ccccc2)nc(N/N=C/c2ccc(O)cc2)n1 | inactive: -1.39% |
| COc1ccc(NC(=O)N(C)C[C@H]2OCCCC[C@H](C)Oc3ccc(NC(=O)c4ccncc4)cc3C(=O)N([C@H](C)CO)C[C@@H]2C)cc1 | active: 21.4% |
| CCN(CC)CCn1c(=S)[nH]c2cc(C(=O)NCCc3ccc(OC)c(OC)c3)ccc2c1=O | inconclusive: 65.2% |
| Cc1ccc(NC(=O)COC(=O)CN2C(=O)c3ccccc3C2=O)cc1 | inconclusive: 20% |
| CCCOC(=O)c1ccc(-c2ccc(C=O)o2)cc1 | inconclusive: 24% |
| C[C@H]1CN([C@@H](C)CO)C(=O)c2ccccc2-c2ccccc2CO[C@H]1CN(C)C(=O)Cc1ccccc1 | inactive: -4.09% |
| COc1ccc(C(=O)Nc2cc(=O)[nH]c3ncnn23)cc1 | inconclusive: 20.2% |
